Source: PMC11497042
These are yes or no findings as the source states them, for the method shown. Binding seen in cells or lysates may run through a third protein. Some results given as binding are weak or reduced against the parent protein; the word gives no strength. Tags and fused reporters may be left off the sequences shown.

Amino acid sequences for entries named in this document (tags omitted). Residues count along the entry.
UniProt Q8K2C6, residues 37-310: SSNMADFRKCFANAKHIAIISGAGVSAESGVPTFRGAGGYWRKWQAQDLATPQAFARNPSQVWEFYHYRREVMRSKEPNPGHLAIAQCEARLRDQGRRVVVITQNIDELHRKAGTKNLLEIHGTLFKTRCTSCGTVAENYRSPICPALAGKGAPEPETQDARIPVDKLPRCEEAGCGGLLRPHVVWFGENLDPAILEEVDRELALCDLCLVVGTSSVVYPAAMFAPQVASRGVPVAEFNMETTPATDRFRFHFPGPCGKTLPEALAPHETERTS

Molecular target: T1, HA-tagged ALDH2 (aldehyde dehydrogenase 2) (UniProt P47738)
T1 sequence: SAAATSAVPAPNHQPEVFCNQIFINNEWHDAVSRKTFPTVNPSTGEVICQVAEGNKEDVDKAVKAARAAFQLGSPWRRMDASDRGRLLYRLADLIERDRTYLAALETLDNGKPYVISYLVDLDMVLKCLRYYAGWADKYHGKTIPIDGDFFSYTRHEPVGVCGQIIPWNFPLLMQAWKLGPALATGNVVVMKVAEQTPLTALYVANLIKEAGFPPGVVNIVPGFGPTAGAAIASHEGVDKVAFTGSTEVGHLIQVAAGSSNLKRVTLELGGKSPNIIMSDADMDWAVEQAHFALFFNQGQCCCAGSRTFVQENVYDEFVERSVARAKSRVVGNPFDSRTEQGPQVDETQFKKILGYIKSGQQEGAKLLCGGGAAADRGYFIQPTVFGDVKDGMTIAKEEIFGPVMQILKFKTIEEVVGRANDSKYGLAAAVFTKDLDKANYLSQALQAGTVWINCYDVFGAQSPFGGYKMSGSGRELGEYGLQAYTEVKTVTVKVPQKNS
Experiment: co-IP; Flag-SIRT5 and HA-ALDH2 cotransfected into HEK-293T cells; IP lysis buffer; lysates incubated overnight at 4 °C with protein A+G agarose beads and anti-HA or anti-Flag antibody; immunoblot

Substance: Flag-tagged SIRT5 (Sirtuin 5) (from UniProt Q8K2C6 37-310) (enzyme)
- binding: binds
